Experimental data: PubChem BioAssay AID1224829 (NIAID, 2016)

Assay: 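Secondary check of hits that alter LPS-induced p65 translocation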 (follow-up of hits)
System: mouse RAW264.7 G9 macrophage reporter cells
Reagent: single siRNA against mouse genes, 100 nM
Time to read-out: 2 days of siRNA knock-down, then 40 min of LPS before fixing
Treatment: LPS (Salmonella minnesota R595) at 10 ng/ml
Measured: 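Imaging of GFP-p65 after 40 min of LPS; nuclear over perinuclear ring intensity ratio, scaled to plate median and non-targeting control wells, given as z-score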
Reading the numbers: p65 translocation z-score: higher = more nuclear NF-kappaB p65 after LPS
Call rule: 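An siRNA is called active when the mean z-score of its two replicates is above 2 or below -2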
Calls: active = changed p65 translocation (either direction); inactive = no clear change
Here is one part, drawn at random, of about 3,800 reagents tested. 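Calls cover raised and lowered translocation; gene median uses one vendor's three siRNAs; qiagen siRNAs acted more weakly than ambion siRNAs.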 Reagents against one gene are numbered here. Not all columns of the deposit are shown. No sequences are given here.

gene | reagent no. | siRNA vendor or control pool | p65 translocation z-score, replicate mean | call
Large1 | 1 | ambion single siRNA | -1.17 | inactive
Large1 | 2 | ambion single siRNA | -1.06 | inactive
Large1 | 3 | ambion single siRNA | -0.784 | inactive
Large1 | 4 | qiagen single siRNA | -1.27 | inactive
Large1 | 5 | qiagen single siRNA | 0.76 | inactive
Large1 | 6 | qiagen single siRNA | 1.69 | inactive
Runx2 | 1 | ambion single siRNA | -0.722 | inactive
Runx2 | 2 | ambion single siRNA | -1.59 | inactive
Runx2 | 3 | ambion single siRNA | -2.65 | active
Runx2 | 4 | qiagen single siRNA | -0.326 | inactive
Runx2 | 5 | qiagen single siRNA | -0.214 | inactive
Runx2 | 6 | qiagen single siRNA | -0.297 | inactive

Continued (3 carried over from the part before).
gene | reagent no. | siRNA vendor or control pool | p65 translocation z-score, replicate mean | call
Runx2 | 4 | qiagen single siRNA | -0.326 | inactive
Runx2 | 5 | qiagen single siRNA | -0.214 | inactive
Runx2 | 6 | qiagen single siRNA | -0.297 | inactive
Txnl4a | 1 | ambion single siRNA | -0.317 | inactive
Txnl4a | 2 | ambion single siRNA | -0.706 | inactive
Txnl4a | 3 | ambion single siRNA | -3.49 | active
Txnl4a | 4 | qiagen single siRNA | -0.596 | inactive
Txnl4a | 5 | qiagen single siRNA | 1.86 | inactive
Txnl4a | 6 | qiagen single siRNA | -0.342 | inactive
Qser1 | 1 | qiagen single siRNA | -0.214 | inactive
Qser1 | 2 | qiagen single siRNA | -1.18 | inactive
Qser1 | 3 | qiagen single siRNA | -2.11 | active
